The results in this text go back to paper PMC6620282.

Amino acid sequences for entries named in this document (tags omitted). Residues count along the entry.
UniProt P08887, residues 20-468: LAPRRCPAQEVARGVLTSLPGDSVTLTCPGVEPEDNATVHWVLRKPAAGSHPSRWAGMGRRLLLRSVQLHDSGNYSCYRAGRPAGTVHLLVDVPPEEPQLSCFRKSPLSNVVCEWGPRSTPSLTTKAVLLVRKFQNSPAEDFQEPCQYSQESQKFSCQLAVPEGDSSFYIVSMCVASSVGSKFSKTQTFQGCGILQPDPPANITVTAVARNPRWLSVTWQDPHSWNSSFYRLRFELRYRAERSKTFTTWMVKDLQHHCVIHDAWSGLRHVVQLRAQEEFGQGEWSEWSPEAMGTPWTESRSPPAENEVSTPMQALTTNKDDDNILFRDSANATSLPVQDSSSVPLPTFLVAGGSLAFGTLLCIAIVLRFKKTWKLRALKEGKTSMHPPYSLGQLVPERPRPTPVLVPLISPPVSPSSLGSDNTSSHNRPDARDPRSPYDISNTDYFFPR

Results are given in words; binding and its absence hold for the method and conditions named. In cells and extracts the contact can be indirect. Some entries that bind do so weakly or less than the wild type.

The target of the assay is IL6Rα (IL-6 receptor alpha) (human (endogenous in AGS and STKM2)) (UniProt P08887). The assay can be described thus: proximity ligation; Duolink in situ PLA on fixed, permeabilised AGS cells expressing TFF1 (adenovirus), IL6 (100 ng/mL, 3 h); mouse anti-IL6Rα with rabbit anti-GP130 or rabbit anti-TFF1.

B1: Trefoil factor 1 (TFF1) (protein, UniProt P04155 25-84)
chain: EAQTETCTVAPRERQNCGFPGVTPSQCANKGCCFDDTVRGVPWCFYPNTIDVPPEEECEF
Regarding B1, the binding result is “binds”.
